Measurements reported in US20050147610A1.
Results are given in words; binding and its absence hold for the method and conditions named. Some entries that bind do so weakly or less than the wild type.

Chains of the proteins cited; added tags and fusions are not shown. Lines headed by an entry give the natural chain unless they say otherwise; changes in a name come on top.
UniProt Q14116: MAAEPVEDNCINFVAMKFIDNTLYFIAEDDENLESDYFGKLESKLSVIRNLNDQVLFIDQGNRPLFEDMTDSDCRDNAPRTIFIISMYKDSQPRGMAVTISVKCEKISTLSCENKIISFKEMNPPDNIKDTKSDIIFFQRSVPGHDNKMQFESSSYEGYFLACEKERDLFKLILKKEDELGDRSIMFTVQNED

Experiments:
[1] = biological target: recombinant mature human IL-18 (preparation not specified) (human) (UniProt Q14116); test: BIACORE; soluble 2nd on rhuIL-18 captured by immobilized 444 (competitor)
[2] = biological target: recombinant mature human IL-18 (preparation not specified) (human) (UniProt Q14116); test: BIACORE; soluble 2nd on rhuIL-18 captured by immobilized 215 (competitor)
[3] = biological target: recombinant mature human IL-18 (preparation not specified) (human) (UniProt Q14116); test: BIACORE; soluble 2nd on rhuIL-18 captured by immobilized 2.13(E)mg1 (competitor)
[4] = biological target: recombinant mature human IL-18 (preparation not specified) (human) (UniProt Q14116); test: BIACORE; soluble 2nd on rhuIL-18 captured by immobilized 125-2H (competitor)
[5] = biological target: recombinant mature human IL-18 (preparation not specified) (human) (UniProt Q14116); test: BIACORE; soluble 2nd on rhuIL-18 captured by immobilized IL-18BP (competitor)
[6] = biological target: recombinant mature human IL-18 (preparation not specified) (human) (UniProt Q14116); test: BIACORE; soluble 2nd on rhuIL-18 captured by immobilized 2.3 (competitor)
[7] = biological target: recombinant mature human IL-18 (preparation not specified) (human) (UniProt Q14116); test: BIACORE; soluble 2nd on rhuIL-18 captured by immobilized 581 (competitor)
[8] = biological target: recombinant mature human IL-18 (preparation not specified) (human) (UniProt Q14116); test: BIACORE; soluble 2nd on rhuIL-18 captured by immobilized 435 (competitor)
[9] = biological target: recombinant mature human IL-18 (preparation not specified) (human) (UniProt Q14116); test: BIACORE; soluble 2nd on rhuIL-18 captured by immobilized 2.5(E)mg1 (competitor)

Measured: binding

B1: 581 (antibody, V domains shown)
VH: ZVQLVESGGGVVQPGRSLRLSCAASGFTFSHCGMHWVRQAPGKGLEWVAVISYDGSNKYYADSVKGRFTISRDNSKNTLYLQMNSLRAEDTAVYYCAKDHGGSGSPPFYYYYGMDVWGQGTTVTVSS
VL: DILMTQTPLSLSVTPGQPASISCKSSQSLLHGDGKTYLYWYLQKPGQPPQFLIQELSNRFSGVPDRFSGSGSGTDFTLKISRVEAEDVGVYYCMQSLQLPLTFGGGTKVQIKR
not listed: [7] | [8] | [9]
binds: all other assays above

B2: 435 (antibody, V domains shown)
VH: ZLQLQESGPGLVKPSETLSLTCTVSGGSIDSRIYYWGWIRQPPGKGLEWIGSIYYRGSTYYNPSLKSRVTISVDTPKNQFSLKLNSVTAADTAVYYCAREDSSAWVFDYWGQGTLATVSS
VL: EIVLTQSPGTLSLSPGERATLSCRASQSVRNNYLNWYQQKPGQAPRLLIYGAFSRATGIPDRFSGSGSGTDFTLTISSLEPEDFVVYYCQQYGNSIDSFGQGTKLEINR
not listed: [7] | [8] | [9]
binds: all other assays above

B3: 2.3.3 (antibody, V domains shown)
VH: ZVQLQESGPGLVKPSETLSLTCTVSGGSIRNYYWSWIRQPPGKGLEWVGYIYSSGSTNYNPSLKSRVTISVDTSKNQFSLKLSSVTAADTAVYYCARDRGGASFFDYWGQGTLVTVSS
VL: DIQMTQSPSSLSASIGDRVTITCRASQIIGGYLNWYQQRPGKAPKFLIYSTSILQSGVPSRFSGSGSGTDFTLTISSLQPEDFATYYCQQTYITPPTFGPGTKVDIKR
binds: [7] | [8] | [9] | [5]
